According to article PMC10251205:
No constants are given. Whether binding was seen depends on the method and setting. Binding seen in cells or lysates may run through a third protein. Some entries that bind do so weakly or less than the wild type. Values belong to the molecule of their own block, whether it stands above or below them.

Protein sequences, listed by entry. Tags and fused reporters are not part of them. Residues count along the entry.
UniProt P25942, residues 21-277: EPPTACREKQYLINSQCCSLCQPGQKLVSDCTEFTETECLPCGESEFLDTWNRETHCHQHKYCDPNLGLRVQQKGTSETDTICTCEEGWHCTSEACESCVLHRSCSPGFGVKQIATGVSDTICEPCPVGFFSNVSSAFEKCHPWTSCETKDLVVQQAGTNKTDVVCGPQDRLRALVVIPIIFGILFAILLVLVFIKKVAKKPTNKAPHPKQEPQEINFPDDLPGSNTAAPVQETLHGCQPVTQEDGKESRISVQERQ
UniProt Q96EP0: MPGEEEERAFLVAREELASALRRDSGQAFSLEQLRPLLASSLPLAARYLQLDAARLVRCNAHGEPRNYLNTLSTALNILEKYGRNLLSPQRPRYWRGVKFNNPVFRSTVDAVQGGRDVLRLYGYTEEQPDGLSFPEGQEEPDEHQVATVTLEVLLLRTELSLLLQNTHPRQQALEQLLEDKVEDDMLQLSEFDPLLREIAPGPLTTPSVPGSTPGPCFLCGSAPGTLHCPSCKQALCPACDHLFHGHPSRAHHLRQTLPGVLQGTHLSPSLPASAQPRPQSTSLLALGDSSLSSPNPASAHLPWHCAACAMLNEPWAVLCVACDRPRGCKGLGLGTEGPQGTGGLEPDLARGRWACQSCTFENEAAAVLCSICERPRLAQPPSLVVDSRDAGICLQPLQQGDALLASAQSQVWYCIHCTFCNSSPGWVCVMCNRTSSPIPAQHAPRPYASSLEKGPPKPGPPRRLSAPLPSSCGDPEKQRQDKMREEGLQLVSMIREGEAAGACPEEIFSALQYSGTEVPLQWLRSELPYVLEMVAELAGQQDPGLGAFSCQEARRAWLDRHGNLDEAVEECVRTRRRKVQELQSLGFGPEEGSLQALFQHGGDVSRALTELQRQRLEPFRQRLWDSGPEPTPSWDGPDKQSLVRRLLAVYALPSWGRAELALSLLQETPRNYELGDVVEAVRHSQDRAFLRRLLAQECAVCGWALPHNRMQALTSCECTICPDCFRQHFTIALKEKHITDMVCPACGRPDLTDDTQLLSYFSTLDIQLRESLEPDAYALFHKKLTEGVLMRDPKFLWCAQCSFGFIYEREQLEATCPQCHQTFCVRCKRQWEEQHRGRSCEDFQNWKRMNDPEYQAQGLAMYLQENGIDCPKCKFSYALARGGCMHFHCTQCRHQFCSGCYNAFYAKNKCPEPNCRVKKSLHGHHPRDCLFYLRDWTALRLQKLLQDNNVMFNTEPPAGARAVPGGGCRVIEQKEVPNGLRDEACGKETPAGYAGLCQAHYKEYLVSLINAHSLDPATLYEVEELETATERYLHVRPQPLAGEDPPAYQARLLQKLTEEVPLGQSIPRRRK

What was measured:
[1] = molecular target: CD40 (human (endogenous in monocyte-derived iDCs)) (UniProt P25942); test: co-IP; iDCs stimulated with HERA-CD40L or Selicrelumab (500 ng/ml, 15 min), lysed; CD40 signaling complex captured through the agonist by goat anti-human IgG-Fc on Protein G Dynabeads; blots for the associated proteins
[2] = molecular target: T1, TRAF2 (human (endogenous in monocyte-derived iDCs)) (UniProt Q12933); test: co-IP; IP of TRAF2 with mouse anti-human TRAF2 on Protein G Dynabeads from lysates of iDCs stimulated with Selicrelumab or HERA-CD40L (15 min); goat anti-human IgG-F(ab)2 fragment added to the lysates
T1 sequence: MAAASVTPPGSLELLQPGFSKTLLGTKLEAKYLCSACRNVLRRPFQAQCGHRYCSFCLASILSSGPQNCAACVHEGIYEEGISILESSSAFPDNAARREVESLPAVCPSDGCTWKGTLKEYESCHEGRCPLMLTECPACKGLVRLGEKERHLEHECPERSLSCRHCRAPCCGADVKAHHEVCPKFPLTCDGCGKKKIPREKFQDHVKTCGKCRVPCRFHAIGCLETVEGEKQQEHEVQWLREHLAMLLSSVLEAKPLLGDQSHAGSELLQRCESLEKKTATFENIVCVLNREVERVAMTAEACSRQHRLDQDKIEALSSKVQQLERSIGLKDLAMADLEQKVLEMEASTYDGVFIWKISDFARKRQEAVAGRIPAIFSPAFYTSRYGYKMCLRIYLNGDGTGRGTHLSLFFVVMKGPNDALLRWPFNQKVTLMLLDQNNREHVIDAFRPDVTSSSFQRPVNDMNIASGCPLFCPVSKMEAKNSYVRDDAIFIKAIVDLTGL

[3] = molecular target: CD40 (human (endogenous in monocyte-derived iDCs)) (UniProt P25942); test: condition: only iDCs stimulated with Selicrelumab (500 ng/ml) instead of HERA-CD40L; co-IP; as a3, iDCs stimulated with Selicrelumab only (500 ng/ml, 15 min)

binding [1]: binds
Molecule: HOIP (RNF31) (from UniProt Q96EP0 1-1072) (enzyme)

binding [1]: binds
binding [2]: binds
B1: TRAF1 (protein, UniProt Q13077 1-416)
chain: MASSSGSSPRPAPDENEFPFGCPPTVCQDPKEPRALCCAGCLSENPRNGEDQICPKCRGEDLQSISPGSRLRTQEKAHPEVAEAGIGCPFAGVGCSFKGSPQSVQEHEVTSQTSHLNLLLGFMKQWKARLGCGLESGPMALEQNLSDLQLQAAVEVAGDLEVDCYRAPCSESQEELALQHFMKEKLLAELEGKLRVFENIVAVLNKEVEASHLALATSIHQSQLDRERILSLEQRVVELQQTLAQKDQALGKLEQSLRLMEEASFDGTFLWKITNVTRRCHESACGRTVSLFSPAFYTAKYGYKLCLRLYLNGDGTGKRTHLSLFIVIMRGEYDALLPWPFRNKVTFMLLDQNNREHAIDAFRPDLSSASFQRPQSETNVASGCPLFFPLSKLQSPKHAYVKDDTMFLKCIVETST

binding [3]: no binding
binding [1]: binds
binding [2]: binds
B2: phosphorylated TBK1 (enzyme, UniProt Q9UHD2 1-729)
chain: MQSTSNHLWLLSDILGQGATANVFRGRHKKTGDLFAIKVFNNISFLRPVDVQMREFEVLKKLNHKNIVKLFAIEEETTTRHKVLIMEFCPCGSLYTVLEEPSNAYGLPESEFLIVLRDVVGGMNHLRENGIVHRDIKPGNIMRVIGEDGQSVYKLTDFGAARELEDDEQFVSLYGTEEYLHPDMYERAVLRKDHQKKYGATVDLWSIGVTFYHAATGSLPFRPFEGPRRNKEVMYKIITGKPSGAISGVQKAENGPIDWSGDMPVSCSLSRGLQVLLTPVLANILEADQEKCWGFDQFFAETSDILHRMVIHVFSLQQMTAHKIYIHSYNTATIFHELVYKQTKIISSNQELIYEGRRLVLEPGRLAQHFPKTTEENPIFVVSREPLNTIGLIYEKISLPKVHPRYDLDGDASMAKAITGVVCYACRIASTLLLYQELMRKGIRWLIELIKDDYNETVHKKTEVVITLDFCIRNIEKTVKVYEKLMKINLEAAELGEISDIHTKLLRLSSSQGTIETSLQDIDSRLSPGGSLADAWAHQEGTHPKDRNVEKLQVLLNCMTEIYYQFKKDKAERRLAYNEEQIHKFDKQKLYYHATKAMTHFTDECVKKYEAFLNKSEEWIRKMLHLRKQLLSLTNQCFDIEEEVSKYQEYTNELQETLPQKMFTASSGIKHTMTPIYPSSNTLVEMTLGMKKLKEEMEGVVKELAENNHILERFGSLTMDGGLRNVDCL
modifications: phosphorylated, site not given
